Results on two molecules are retold here after patent US20220332835A1 (SHANGHAITECH UNIVERSITY, published 2022).

Where a chain is given by its changes, count along the chain named. No constants are given. Whether binding was seen depends on the method and setting. A result given as binding can be weak or reduced; the word gives no strength.

Assay [1] deals with mcCXCR2-mCherry (macaque monkey). The assay is described as follows: FACS on transfected U2OS cells.
Assay [2] concerns the target hCXCR2-K16A. Kind of assay: flow cytometry, U2OS cells expressing the hCXCR2-mCherry point mutant, Alexa Fluor 488 secondary antibody. For orientation: Flow cytometry measures light scatter and fluorescence of single cells or particles in a stream.

B1: abN48-IgG1 (antibody, V domains shown)
VH: QVQLVQSGAEVKKPGSSVKVSCKASGGTLSSYAISWVRQAPGQGPEWMGWINPNSGGTNYAQKFQGRVTMTRDTSISTAYMELSRLRPDDTAVYYCASGYCSSTSCYDYWGQGTLVTVSS
VL: QAVLTQPSSLSASPGASVSLTCTLRSGINVGAYRIYWYQQKPGSPPQFLLRYKSDSDKQQGSGVPSRFSGSRDASANAGILLISGLRSEDEADYYCAIWHSSAWVFGGGTQLTVLG
notes: also called full-length abN48
As to B1, the binding entry in assay [1] and in assay [2] was “binds” in each case.

B2: abN48-2-IgG1 (antibody, V domains shown)
VH: B1 VH with S103R, S105R
VL: B1 VL
notes: Full-length human IgG1, lambda light chain; also called ab48-2-IgG1; abN48-2-IgG2 (as misprinted)
B2: the binding result in assay [1] is on record as “binds”.
